Results taken from patent publication US20220160663A1 (SEOUL NATIONAL UNIVERSITY R AND DB FOUNDATION, published 2022).
These are yes or no findings as the source states them, for the method shown. Binding seen in cells or lysates may run through a third protein. Some results given as binding are weak or reduced against the parent protein; the word gives no strength.

Amino acid sequences for entries named in this document (tags omitted).
UniProt P11166: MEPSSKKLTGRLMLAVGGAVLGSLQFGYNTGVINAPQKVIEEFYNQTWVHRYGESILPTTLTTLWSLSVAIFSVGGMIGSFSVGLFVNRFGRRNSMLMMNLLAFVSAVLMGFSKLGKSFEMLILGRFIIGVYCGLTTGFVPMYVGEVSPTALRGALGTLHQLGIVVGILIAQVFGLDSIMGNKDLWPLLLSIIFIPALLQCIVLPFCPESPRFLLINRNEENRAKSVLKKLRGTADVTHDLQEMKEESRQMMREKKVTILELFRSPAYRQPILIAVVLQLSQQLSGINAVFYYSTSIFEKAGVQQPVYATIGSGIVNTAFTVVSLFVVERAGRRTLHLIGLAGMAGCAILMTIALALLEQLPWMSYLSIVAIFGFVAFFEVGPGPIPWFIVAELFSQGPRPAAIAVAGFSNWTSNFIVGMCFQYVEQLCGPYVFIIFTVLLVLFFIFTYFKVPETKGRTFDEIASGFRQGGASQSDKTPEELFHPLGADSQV
UniProt O14894: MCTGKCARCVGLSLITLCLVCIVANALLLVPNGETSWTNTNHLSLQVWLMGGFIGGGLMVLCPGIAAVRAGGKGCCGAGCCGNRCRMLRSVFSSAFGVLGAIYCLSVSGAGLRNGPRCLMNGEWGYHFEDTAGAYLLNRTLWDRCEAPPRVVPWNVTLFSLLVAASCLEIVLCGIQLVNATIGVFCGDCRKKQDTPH

Experiments:
[1] = target: Glut1 (accession number: NP_006507) WT, HA-tagged (UniProt P11166); assay: Strep pull-down, Western blot (summary of results in the description)
[2] = target: Glut1 (accession number: NP_006507) WT, HA-tagged (UniProt P11166); assay: Strep pull-down from THP-1 cell extract, anti-HA Western blot (summary of Exp. Ex. 4-1 and 4-2)
[3] = target: Glut1 (accession number: NP_006507) WT, HA-tagged (UniProt P11166); assay: Strep pull-down from THP-1 cell extract, anti-HA Western blot

Measured: binding

TM4SF5-Strep WT (transmembrane 4 L six family member 5, Strep-tagged) (from UniProt O14894 1-197)
binds: all assays above
